The list shows a part of the results, in another mix than the full data. Active and inactive are the calls of the source. Cut-off read from the data, not from the text of the source: active = fold change permeability below about 0.7 or above about 1.3; inactive = in between.
Assay: modulators of brain endothelial barrier permeability, primary screen, cell-based, FITC-avidin fluorescence, HTS (AID 1963498); note: test concentration not given here
Settings: actives lie on both sides

With `CCCc1nc2c(N)nc3ccccc3c2s1` the fold change permeability was active: 1.7.

From PubChem BioAssay
